{"source": "patent US20070021418A1", "about": "“Method of inhibiting production of osteopontin” (Kowa Co., LTD., priority 2003, published 2007)", "tested_on": "OPN production in RPMI8226 cells", "assay": "OPN production inhibiting effect in cultured RPMI8226 cells (ELISA of culture supernatant)", "type": "cell-based, human", "settings": "summary statement on Table 1", "description": "Compounds 1 to 6 were separately dissolved in dimethylsulfoxide (DMSO) to prepare 20 mmol/L solutions of the respective compounds. Aliquots of those solutions were diluted further to prepare 6, 2, 0.6 and 0.2 mmol/L solutions of the respective compounds. The DMSO solutions of the respective compounds (1 to 6) (concentrations: 0.2 to 20 mmol/L) and DMSO (as a compound non-addition group) were separately diluted 1,000-fold with a culture medium (10% fetal-bovine-serum (FBS)-added RPMI-1640 medium) to prepare 0 (non-addition group), 0.2, 0.6, 2, 6 and 20 μmol/L solutions of the respective compounds (1-6).\n3) Study on the OPN Production Inhibiting Effect of the Individual Compounds in RPMI8226 Cells\nA 2×10^5 cells/mL cell suspension of RPMI8226 cells was prepared, and was seeded 2 mL by 2 mL per well on a 6-well plates. To the wells, the individual solutions prepared in the procedure 2) (the solutions of Compounds 1 to 6, having concentrations of 0 (non-addition group), 0.2, 0.6, 2, 6, and 20 μmol/L, respectively) were added 2 mL by 2 mL per well, followed by mixing to bring the final concentrations of Compound 1-6 in the individual wells to 0 (non-added group), 0.1, 0.3, 1, 3 and 10 μmol/L. The cells of those conditions were cultured as prophase culture at 37° C. for 3 days in the presence of 5% CO2.\nAfter the above-described culture, the cells in the respective wells were collected, and were counted well by well. Those cells were again suspended separately in aliquots of a 2×10^5 cells/mL suspension, and the cells of the respective conditions were each seeded 0.5 mL by 0.5 mL per well in two wells. To the wells of the respective conditions, individual solutions prepared at the same concentrations as those at the time of the culture in a similar manner as in the prophase culture (individual solutions of Compounds 1 to 6, having concentrations of […], respectively) were added 0.5 mL by 0.5 mL per sell to the individual wells. After mixing, the cells were cultured as anaphase culture at 37° C. for 3 days in the presence of 5% CO2.\nSubsequent to the completion of the anaphase culture, culture supernatants were separately collected from the respective wells, and the OPN concentrations in the individual culture supernatants were quantitated with an absorptiometer by ELISA (Human Osteopontin Measurement Kit IBL; IBL Co., Ltd.).\nUsing the SAS Preclinical Package, Version 5.0, the measurement values were analyzed by the following procedure. Described specifically, the concentrations were logarithmically converted (the compound non-addition group (0 μmol/L) was replaced by 1 pmol/L), and using the measurement values (6 concentrations, 2 measurement values per concentration, 12 measurement values in total), plotting into a logistic curve was conducted. From the curve, concentrations (IC50) which give 50% reactivity were calculated.", "note": "Some of these results come from one statement about several compounds together. For at least one compound, name, drawing or mass did not settle the structure.", "data": [{"smiles": "CS(=O)(=O)O.CSc1ccc(-c2nn(Cc3ccccn3)c(=S)cc2-c2ccc(Cl)cc2)cc1", "note": "[Compound 1, 5-(4-chlorophenyl)-6-[4-(methylthio)phenyl]-2-(2-pyridylmethyl)-2H-pyridazine-3-thione methanesulfonate]", "values": [{"measurement": "OPN production inhibiting effect", "result": "excellent OPN production inhibiting effect"}]}, {"smiles": "CSc1ccc(-c2nn(Cc3ccccc3)c(=O)cc2-c2ccc(Cl)cc2)cc1", "note": "[Compound 4, 2-benzyl-5-(4-chlorophenyl)-6-[4-(methylthio)phenyl]-2H-pyridazin-3-one]", "values": [{"measurement": "OPN production inhibiting effect", "result": "excellent OPN production inhibiting effect"}]}, {"smiles": "CCn1nc(-c2ccc(OC)cc2)c(-c2ccc(OC)cc2)cc1=O", "note": "[Compound 6, 5,6-bis(4-methoxyphenyl)-2-ethyl-2H-pyridazin-3-one]", "values": [{"measurement": "OPN production inhibiting effect", "result": "excellent OPN production inhibiting effect"}]}, {"smiles": "COc1ccc(-c2nn(Cc3ccc(Cl)cc3)c(=O)cc2-c2ccncc2)cc1", "note": "[Compound 5]", "values": [{"measurement": "OPN production inhibiting effect", "result": "excellent OPN production inhibiting effect"}]}, {"smiles": "COc1ccc(-c2cc(=O)n(CC=Cc3ccc(Cl)cc3)nc2-c2ccc(OC)cc2)cc1", "note": "[Compound 3, 5,6-bis(4-methoxyphenyl)-2-(4-chlorocinnamyl)-2H-pyridazin-3-one]", "values": [{"measurement": "OPN production inhibiting effect", "result": "excellent OPN production inhibiting effect"}]}, {"smiles": "CS(=O)(=O)O.CSc1ccc(-c2nn(Cc3cccnc3)c(=O)cc2-c2ccc(Cl)cc2)cc1", "note": "[Compound 2, 5-(4-chlorophenyl)-6-[4-(methylthio)phenyl]-2-(3-pyridylmethyl)-2H-pyridazin-3-one methanesulfonate]", "values": [{"measurement": "OPN production inhibiting effect", "result": "excellent OPN production inhibiting effect"}]}]}
